Results on 1 sequence are retold here after paper PMC10511320.

The chains behind the UniProt entries cited, without tags or fusion partners.
UniProt Q9BQ15, whole entry W55A/F78A: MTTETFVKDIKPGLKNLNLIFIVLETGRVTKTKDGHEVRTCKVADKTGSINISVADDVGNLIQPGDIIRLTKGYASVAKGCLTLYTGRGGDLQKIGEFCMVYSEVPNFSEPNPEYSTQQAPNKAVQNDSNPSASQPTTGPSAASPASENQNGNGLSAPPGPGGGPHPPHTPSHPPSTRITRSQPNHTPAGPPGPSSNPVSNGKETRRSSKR

For at least one entry, the source does not settle the construct or the ends of the probe. A weaker result is weaker than the reference pair of the same experiment.

The data set concerns the target SSB1 W55A/F78A (human) (UniProt Q9BQ15). Kind of data set: EMSA. Conditions: described as defective in binding ssDNA; EMSA: 100 nM Cy3 probe, 20 mM Tris-HCl pH 7.5, 50 mM NaCl, 5 mM MgCl2, 0.2 mM EDTA, 1 mM DTT, on ice 30 min; 6% native PAGE, 0.5x TBE, cold room; recombinant protein; label: 3' Cy3; single-stranded DNA. (In general: Mobility shift assays separate free from complexed probe on a gel.)

Turning to “TTTTTTTTTTTTTTTTTTTTTTTTTTTTTTTTTTTTTTTTTTTTTTTT [oligo (dT)48]”, the binding result is reported as “binds more weakly”.
